Laboratory results reported in the supplement of paper PMC10849652.
The other results are listed elsewhere or left out.

By UniProt entry, the sequences of proteins in these tests, tags left out. Where a name states a change or a piece, a line headed by the entry shows the natural chain unless it says otherwise.
UniProt P10124: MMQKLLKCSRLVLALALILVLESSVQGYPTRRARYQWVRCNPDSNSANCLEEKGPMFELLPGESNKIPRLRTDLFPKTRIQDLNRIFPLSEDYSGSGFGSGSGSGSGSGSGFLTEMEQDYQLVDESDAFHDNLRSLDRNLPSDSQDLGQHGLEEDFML
UniProt Q8N0X7: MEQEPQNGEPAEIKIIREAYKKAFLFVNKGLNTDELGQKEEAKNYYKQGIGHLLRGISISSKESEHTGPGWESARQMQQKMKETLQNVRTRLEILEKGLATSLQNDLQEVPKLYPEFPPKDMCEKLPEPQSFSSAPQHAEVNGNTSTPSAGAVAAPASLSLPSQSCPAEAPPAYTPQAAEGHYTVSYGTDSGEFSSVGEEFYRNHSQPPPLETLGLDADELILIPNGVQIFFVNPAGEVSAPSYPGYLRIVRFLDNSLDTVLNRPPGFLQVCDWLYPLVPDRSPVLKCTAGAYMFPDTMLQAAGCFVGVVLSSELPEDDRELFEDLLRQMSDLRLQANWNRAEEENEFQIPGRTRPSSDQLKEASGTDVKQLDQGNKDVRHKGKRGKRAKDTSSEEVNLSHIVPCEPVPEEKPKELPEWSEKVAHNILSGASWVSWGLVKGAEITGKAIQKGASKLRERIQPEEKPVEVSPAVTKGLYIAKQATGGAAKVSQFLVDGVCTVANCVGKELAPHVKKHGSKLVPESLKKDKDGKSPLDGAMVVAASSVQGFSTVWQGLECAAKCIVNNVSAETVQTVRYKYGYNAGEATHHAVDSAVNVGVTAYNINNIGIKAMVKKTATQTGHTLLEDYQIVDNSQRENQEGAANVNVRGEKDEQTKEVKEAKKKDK
UniProt P08240: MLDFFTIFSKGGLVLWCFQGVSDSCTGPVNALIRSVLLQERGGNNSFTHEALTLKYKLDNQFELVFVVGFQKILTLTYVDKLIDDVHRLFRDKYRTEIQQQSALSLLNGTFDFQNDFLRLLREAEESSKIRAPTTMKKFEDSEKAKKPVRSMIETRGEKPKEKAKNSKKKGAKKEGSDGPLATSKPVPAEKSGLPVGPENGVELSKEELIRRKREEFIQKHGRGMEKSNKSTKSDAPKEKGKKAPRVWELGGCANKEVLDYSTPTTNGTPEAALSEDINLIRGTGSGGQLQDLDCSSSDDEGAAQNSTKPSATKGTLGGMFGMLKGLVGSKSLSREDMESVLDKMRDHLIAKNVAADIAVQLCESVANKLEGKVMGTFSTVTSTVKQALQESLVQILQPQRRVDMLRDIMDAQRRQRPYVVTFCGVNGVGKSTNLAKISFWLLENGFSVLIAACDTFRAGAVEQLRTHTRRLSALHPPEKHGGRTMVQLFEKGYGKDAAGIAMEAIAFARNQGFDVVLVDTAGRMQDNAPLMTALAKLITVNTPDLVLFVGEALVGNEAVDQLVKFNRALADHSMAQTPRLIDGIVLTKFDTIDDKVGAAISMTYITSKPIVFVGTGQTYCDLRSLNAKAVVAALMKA
UniProt O60225: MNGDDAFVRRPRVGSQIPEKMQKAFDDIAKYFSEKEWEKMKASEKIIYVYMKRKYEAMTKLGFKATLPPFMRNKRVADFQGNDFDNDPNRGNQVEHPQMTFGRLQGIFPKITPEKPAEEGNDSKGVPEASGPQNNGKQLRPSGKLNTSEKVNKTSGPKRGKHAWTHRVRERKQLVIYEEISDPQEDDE
UniProt O15269: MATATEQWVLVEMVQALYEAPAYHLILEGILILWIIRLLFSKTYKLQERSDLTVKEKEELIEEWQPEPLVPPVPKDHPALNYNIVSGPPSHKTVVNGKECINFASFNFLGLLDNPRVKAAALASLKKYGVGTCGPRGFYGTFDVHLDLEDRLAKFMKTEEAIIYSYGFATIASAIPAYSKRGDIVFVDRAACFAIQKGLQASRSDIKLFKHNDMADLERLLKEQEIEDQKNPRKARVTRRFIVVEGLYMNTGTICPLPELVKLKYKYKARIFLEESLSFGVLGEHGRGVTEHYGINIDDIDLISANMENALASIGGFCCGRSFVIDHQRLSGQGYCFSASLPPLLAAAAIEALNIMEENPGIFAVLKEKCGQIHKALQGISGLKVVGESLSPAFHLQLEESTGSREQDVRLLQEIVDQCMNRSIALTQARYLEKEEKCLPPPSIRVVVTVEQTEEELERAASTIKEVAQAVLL
UniProt Q9BYN0: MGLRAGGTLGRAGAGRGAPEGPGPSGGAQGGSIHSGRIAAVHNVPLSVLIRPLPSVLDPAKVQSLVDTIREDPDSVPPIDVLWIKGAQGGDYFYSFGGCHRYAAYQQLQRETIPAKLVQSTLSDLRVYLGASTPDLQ
UniProt O76061, whole entry, looked up: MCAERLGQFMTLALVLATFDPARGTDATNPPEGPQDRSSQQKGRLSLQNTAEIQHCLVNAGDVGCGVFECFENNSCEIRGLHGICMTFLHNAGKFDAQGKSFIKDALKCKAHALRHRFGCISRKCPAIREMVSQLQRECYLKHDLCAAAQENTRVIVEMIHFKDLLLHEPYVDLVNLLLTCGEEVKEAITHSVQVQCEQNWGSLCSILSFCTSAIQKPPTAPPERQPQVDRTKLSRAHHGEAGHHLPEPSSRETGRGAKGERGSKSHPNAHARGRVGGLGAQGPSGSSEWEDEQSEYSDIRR
UniProt Q16842: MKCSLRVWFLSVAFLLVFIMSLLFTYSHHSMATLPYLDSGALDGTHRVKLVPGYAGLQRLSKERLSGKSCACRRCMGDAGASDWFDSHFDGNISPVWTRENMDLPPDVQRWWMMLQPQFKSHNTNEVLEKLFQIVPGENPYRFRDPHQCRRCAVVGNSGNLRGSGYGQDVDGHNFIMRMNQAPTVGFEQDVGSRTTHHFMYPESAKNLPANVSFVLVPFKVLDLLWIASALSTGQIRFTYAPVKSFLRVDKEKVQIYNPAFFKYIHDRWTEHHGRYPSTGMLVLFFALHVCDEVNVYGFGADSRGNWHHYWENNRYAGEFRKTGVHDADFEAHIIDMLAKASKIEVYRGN
UniProt Q76I76: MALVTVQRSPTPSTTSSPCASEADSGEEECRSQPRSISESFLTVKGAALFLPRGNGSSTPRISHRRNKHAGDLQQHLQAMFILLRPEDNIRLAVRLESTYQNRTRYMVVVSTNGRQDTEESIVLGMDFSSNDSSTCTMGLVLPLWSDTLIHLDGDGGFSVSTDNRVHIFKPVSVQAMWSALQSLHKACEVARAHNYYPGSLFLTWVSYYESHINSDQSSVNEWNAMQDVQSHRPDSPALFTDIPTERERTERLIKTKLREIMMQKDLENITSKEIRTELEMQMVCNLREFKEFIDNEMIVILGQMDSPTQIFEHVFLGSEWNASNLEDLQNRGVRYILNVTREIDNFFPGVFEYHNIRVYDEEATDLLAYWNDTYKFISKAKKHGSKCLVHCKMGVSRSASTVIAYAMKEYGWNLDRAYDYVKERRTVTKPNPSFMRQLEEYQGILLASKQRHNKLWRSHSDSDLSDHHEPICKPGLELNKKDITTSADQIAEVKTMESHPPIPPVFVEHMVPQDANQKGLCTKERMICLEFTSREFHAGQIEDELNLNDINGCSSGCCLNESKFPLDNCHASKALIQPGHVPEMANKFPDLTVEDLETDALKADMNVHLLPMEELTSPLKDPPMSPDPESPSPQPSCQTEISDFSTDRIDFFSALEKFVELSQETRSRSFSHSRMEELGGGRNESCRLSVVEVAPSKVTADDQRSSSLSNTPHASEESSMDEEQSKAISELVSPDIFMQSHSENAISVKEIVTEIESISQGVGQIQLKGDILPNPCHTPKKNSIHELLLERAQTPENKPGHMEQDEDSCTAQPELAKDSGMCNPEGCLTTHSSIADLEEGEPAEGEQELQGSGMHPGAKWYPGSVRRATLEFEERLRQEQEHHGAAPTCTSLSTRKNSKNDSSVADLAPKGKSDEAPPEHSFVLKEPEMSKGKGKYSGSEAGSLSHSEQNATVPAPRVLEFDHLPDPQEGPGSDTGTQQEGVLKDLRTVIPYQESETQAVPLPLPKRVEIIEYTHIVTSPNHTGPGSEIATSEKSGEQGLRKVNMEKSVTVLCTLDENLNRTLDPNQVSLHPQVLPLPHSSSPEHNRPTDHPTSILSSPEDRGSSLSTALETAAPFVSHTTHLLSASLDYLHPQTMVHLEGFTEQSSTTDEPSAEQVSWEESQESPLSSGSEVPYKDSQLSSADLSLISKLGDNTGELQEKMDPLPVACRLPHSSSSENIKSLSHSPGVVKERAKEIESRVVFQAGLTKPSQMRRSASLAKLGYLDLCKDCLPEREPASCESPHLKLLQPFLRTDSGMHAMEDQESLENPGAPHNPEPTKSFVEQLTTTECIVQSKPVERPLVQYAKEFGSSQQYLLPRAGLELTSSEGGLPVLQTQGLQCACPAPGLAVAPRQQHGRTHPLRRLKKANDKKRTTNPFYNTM

What was measured:
Assay in all cases: log2 fold change, soluble protein after heating vs DMSO (PISA); higher = thermal stabilisation; K562 lysate, 10 uM; active = over 0.2 and 3.5 SD of the protein, either way, in both replicates (recomputed)
lapatinib = compound: CS(=O)(=O)CCNCc1ccc(-c2ccc3ncnc(Nc4ccc(OCc5cccc(F)c5)c(Cl)c4)c3c2)o1 [lapatinib]
Summary of the method: (§1)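 Log-two fold change in thermal stability relative to solvent controls is reported from duplicates. For each sample, crude K562 extract from dounce-homogenised pellets in PBS pH 7.4 with 1 mM MgCl2, at 1 mg/mL protein, was treated with 10 μM compound for 30 min. Aliquots heated for 3 min across 48°C-58°C were pooled, brought to 0.5% NP-40 at 4°C and cleared at 21,000xg for 90 min. The supernatant was quantified by TMTpro 16plex LC-MS/MS with channel sums equalised.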

pictilisib = compound: CS(=O)(=O)N1CCN(Cc2cc3nc(-c4cccc5[nH]ncc45)nc(N4CCOCC4)c3s2)CC1 [pictilisib]
Summary of the method: as §1

crizotinib = compound: C[C@@H](Oc1cc(-c2cnn(C3CCNCC3)c2)cnc1N)c1c(Cl)ccc(F)c1Cl [crizotinib]
Summary of the method: as §1

[1] = compound: C[C@H](C1=CC=C(C=C1)C(=O)NC2=C3C=CNC3=NC=C2)N
Summary of the method: as §1

duvelisib = compound: C[C@H](Nc1ncnc2nc[nH]c12)c1cc2cccc(Cl)c2c(=O)n1-c1ccccc1 [duvelisib]
Summary of the method: as §1

gandotinib = compound: Cc1cc(Nc2cc(CN3CCOCC3)c3nc(C)c(Cc4ccc(Cl)cc4F)n3n2)n[nH]1 [gandotinib]
Summary of the method: as §1

tozasertib = compound: Cc1cc(Nc2cc(N3CCN(C)CC3)nc(Sc3ccc(NC(=O)C4CC4)cc3)n2)n[nH]1 [tozasertib]
Summary of the method: as §1

doramapimod = compound: Cc1ccc(-n2nc(C(C)(C)C)cc2NC(=O)Nc2ccc(OCCN3CCOCC3)c3ccccc23)cc1 [doramapimod]
Summary of the method: as §1

bafetinib = compound: Cc1ccc(NC(=O)c2ccc(CN3CC[C@H](N(C)C)C3)c(C(F)(F)F)c2)cc1Nc1nccc(-c2cncnc2)n1 [bafetinib]
Summary of the method: as §1

[2] = compound: Cc1cccc(CC(=O)N2CCc3c2ccc(-c2cn(C)c4ncnc(N)c24)c3F)n1
Summary of the method: as §1

dasatinib = compound: Cc1nc(Nc2ncc(C(=O)Nc3c(C)cccc3Cl)s2)cc(N2CCN(CCO)CC2)n1 [dasatinib]
Summary of the method: as §1

[3] = compound: Cn1cc(-c2ccc3c(c2)CCN3C(=O)Cc2cccc(C(F)(F)F)c2)c2c(N)ncnc21
Summary of the method: as §1

quisinostat = compound: Cn1cc(CNCC2CCN(c3ncc(C(=O)NO)cn3)CC2)c2ccccc21 [quisinostat]
Summary of the method: as §1

[4] = compound: NC(=O)Nc1cc(-c2cccc(F)c2)sc1C(=O)N[C@H]1CCCNC1
Summary of the method: as §1

[5] = compound: NC(=O)c1cnc(N[C@@H]2CCCC[C@@H]2N)nc1Nc1cccc(-n2nccn2)c1
Summary of the method: as §1

[6] = compound: NC1(c2ccc(-c3nc4ccn5c(=O)[nH]nc5c4cc3-c3ccccc3)cc2)CCC1
Summary of the method: as §1

nilotinib = compound: Cc1cn(-c2cc(NC(=O)c3ccc(C)c(Nc4nccc(-c5cccnc5)n4)c3)cc(C(F)(F)F)c2)cn1 [nilotinib]
Summary of the method: as §1

[7] = compound: Cc1nc(Nc2n[nH]c3c2CN(C(=O)N[C@H](CN(C)C)c2ccccc2)C3(C)C)c2sccc2n1
Summary of the method: as §1

[8] = compound: Cc1ncc(-c2ccnc(Nc3ccc(S(C)(=O)=O)cc3)n2)n1C(C)C
Summary of the method: as §1

tipifarnib = compound: Cn1cncc1[C@@](N)(c1ccc(Cl)cc1)c1ccc2c(c1)c(-c1cccc(Cl)c1)cc(=O)n2C [tipifarnib]
Summary of the method: as §1

Target	log2 fold change (lapatinib)	log2 fold change (pictilisib)	log2 fold change (crizotinib)	log2 fold change [1]	log2 fold change (duvelisib)	log2 fold change (gandotinib)	log2 fold change (tozasertib)	log2 fold change (doramapimod)	log2 fold change (bafetinib)	log2 fold change [2]	log2 fold change (dasatinib)	log2 fold change [3]	log2 fold change (quisinostat)	log2 fold change [4]	log2 fold change [5]	log2 fold change [6]	log2 fold change (nilotinib)	log2 fold change [7]	log2 fold change [8]	log2 fold change (tipifarnib)
SRGN (UniProt P10124)	inactive: 0.016	inactive: -0.181	inactive: -0.054	inactive: -0.046	inactive: 0.019	inactive: -0.097	inactive: 0.008	inactive: -0.071	inactive: -0.17	inactive: 0.192	inactive: 0.003	inactive: -0.062	inactive: -0.026	inactive: 0	inactive: 0	inactive: -0.086	–	–	–	–
SPART (UniProt Q8N0X7)	inactive: 0.042	inactive: -0.03	inactive: 0.053	inactive: -0.042	inactive: -0.022	inactive: 0.078	inactive: 0	inactive: 0.015	inactive: -0.072	inactive: 0.066	inactive: 0.009	inactive: -0.027	inactive: 0.093	inactive: 0.005	inactive: -0.022	inactive: 0.018	inactive: 0.032	inactive: 0.029	inactive: 0.021	inactive: -0.12
SRPRA (UniProt P08240)	inactive: -0.011	inactive: 0.018	inactive: 0.152	inactive: -0.019	inactive: -0.04	inactive: -0.106	inactive: 0.026	inactive: -0.007	inactive: 0.018	inactive: 0.03	inactive: 0.003	inactive: -0.01	inactive: -0.019	inactive: 0	inactive: 0.023	inactive: 0.033	inactive: -0.002	inactive: 0.01	inactive: -0.028	inactive: -0.026
SRP14 (UniProt H0YLW0)	inactive: -0.055	inactive: -0.004	inactive: -0.376	inactive: -0.162	inactive: 0.032	inactive: 0.501	–	inactive: 0.032	inactive: -0.028	inactive: 0.466	inactive: 0.037	inactive: -0.177	inactive: -0.6	inactive: 0.158	inactive: -0.028	inactive: -0.247	–	–	–	–
SSX5 isoform 2 (UniProt O60225)	inactive: 0.042	inactive: 0.082	–	inactive: -0.476	–	inactive: 0.092	inactive: 0.085	–	inactive: -0.04	inactive: 0.183	–	–	–	–	inactive: 0.026	inactive: 0.15	inactive: 0.008	inactive: -0.018	inactive: 0.064	inactive: 0.061
SPTLC1 (UniProt O15269)	inactive: -0.018	inactive: 0.021	inactive: -0.092	inactive: -0.042	inactive: -0.002	inactive: 0.002	inactive: 0.011	inactive: 0.009	inactive: -0.032	inactive: 0.049	inactive: -0.007	inactive: -0.009	inactive: -0.071	inactive: -0.012	inactive: 0.035	inactive: 0.011	inactive: -0.007	inactive: 0.009	inactive: 0.026	inactive: -0.013
SSB (UniProt E7ERC4)	inactive: -0.151	inactive: -0.15	inactive: -0.103	active: 1.41	inactive: 0.141	inactive: -0.263	inactive: -0.028	inactive: 0.032	inactive: -0.271	inactive: -0.121	inactive: 0.007	inactive: -0.078	inactive: -0.198	inactive: 0.152	inactive: -0.108	inactive: -0.128	inactive: -0.059	inactive: 0.165	inactive: 0.198	inactive: 0.171
SRXN1 (UniProt Q9BYN0)	inactive: 0.07	inactive: -0.04	inactive: -0.037	inactive: 0.007	inactive: 0.001	inactive: -0.017	inactive: 0.089	inactive: -0.031	inactive: 0.054	inactive: 0.106	inactive: -0.002	inactive: -0.067	inactive: -0.052	inactive: 0.074	inactive: 0.044	inactive: 0.026	inactive: -0.055	inactive: 0.041	inactive: 0.035	inactive: -0.064
STC2 (UniProt O76061)	inactive: 0.063	–	inactive: 0.066	inactive: -0.279	inactive: -0.051	inactive: 0.069	inactive: -0.124	inactive: 0.127	–	inactive: -0.012	inactive: -0.033	inactive: 0.127	inactive: 0.055	inactive: -0.034	inactive: -0.28	inactive: -0.06	inactive: 0.062	inactive: -0.089	inactive: -0.036	inactive: 0.071
ST3GAL2 (UniProt Q16842)	inactive: 0.017	inactive: 0	inactive: -0.054	inactive: -0.076	inactive: -0.056	inactive: 0.127	inactive: 0.044	inactive: 0.026	inactive: 0.096	inactive: 0.191	inactive: -0.015	inactive: 0.043	inactive: 0.045	inactive: 0.064	inactive: -0.02	inactive: -0.008	–	–	–	–
SSH2 (UniProt Q76I76)	inactive: -0.132	–	inactive: 0.01	inactive: -0.029	inactive: -0.053	inactive: 0.131	inactive: 0.059	inactive: -0.067	–	inactive: 0.184	inactive: -0.065	inactive: 0.165	inactive: -0.022	inactive: 0.033	inactive: 0.113	inactive: 0.09	–	–	–	–
